Measurements: the supplement of paper PMC10849652
Some of the results follow.

The chains behind the UniProt entries cited, without tags or fusion partners. Where a name states a change or a piece, a line headed by the entry shows the natural chain unless it says otherwise.
UniProt Q9UKX7: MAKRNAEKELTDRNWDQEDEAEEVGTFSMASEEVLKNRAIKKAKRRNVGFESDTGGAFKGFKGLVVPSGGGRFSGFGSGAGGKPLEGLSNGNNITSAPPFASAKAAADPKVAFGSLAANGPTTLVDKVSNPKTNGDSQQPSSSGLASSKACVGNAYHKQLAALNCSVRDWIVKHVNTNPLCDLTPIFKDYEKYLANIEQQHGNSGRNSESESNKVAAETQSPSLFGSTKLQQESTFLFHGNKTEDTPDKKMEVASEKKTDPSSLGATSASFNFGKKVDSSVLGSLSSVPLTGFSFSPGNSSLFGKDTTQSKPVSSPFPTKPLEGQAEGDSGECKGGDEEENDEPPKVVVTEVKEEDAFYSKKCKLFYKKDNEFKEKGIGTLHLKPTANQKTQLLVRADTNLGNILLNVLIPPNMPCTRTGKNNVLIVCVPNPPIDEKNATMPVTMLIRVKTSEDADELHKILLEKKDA
UniProt Q9NPF4: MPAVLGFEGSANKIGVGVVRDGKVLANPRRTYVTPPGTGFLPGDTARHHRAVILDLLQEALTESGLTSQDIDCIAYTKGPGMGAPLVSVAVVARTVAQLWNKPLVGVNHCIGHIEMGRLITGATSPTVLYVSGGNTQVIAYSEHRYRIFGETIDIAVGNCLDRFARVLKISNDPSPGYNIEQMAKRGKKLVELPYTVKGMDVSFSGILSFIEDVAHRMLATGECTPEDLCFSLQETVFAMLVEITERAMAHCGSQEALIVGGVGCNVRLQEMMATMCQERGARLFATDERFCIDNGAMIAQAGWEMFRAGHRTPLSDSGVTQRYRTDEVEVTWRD
UniProt O60313: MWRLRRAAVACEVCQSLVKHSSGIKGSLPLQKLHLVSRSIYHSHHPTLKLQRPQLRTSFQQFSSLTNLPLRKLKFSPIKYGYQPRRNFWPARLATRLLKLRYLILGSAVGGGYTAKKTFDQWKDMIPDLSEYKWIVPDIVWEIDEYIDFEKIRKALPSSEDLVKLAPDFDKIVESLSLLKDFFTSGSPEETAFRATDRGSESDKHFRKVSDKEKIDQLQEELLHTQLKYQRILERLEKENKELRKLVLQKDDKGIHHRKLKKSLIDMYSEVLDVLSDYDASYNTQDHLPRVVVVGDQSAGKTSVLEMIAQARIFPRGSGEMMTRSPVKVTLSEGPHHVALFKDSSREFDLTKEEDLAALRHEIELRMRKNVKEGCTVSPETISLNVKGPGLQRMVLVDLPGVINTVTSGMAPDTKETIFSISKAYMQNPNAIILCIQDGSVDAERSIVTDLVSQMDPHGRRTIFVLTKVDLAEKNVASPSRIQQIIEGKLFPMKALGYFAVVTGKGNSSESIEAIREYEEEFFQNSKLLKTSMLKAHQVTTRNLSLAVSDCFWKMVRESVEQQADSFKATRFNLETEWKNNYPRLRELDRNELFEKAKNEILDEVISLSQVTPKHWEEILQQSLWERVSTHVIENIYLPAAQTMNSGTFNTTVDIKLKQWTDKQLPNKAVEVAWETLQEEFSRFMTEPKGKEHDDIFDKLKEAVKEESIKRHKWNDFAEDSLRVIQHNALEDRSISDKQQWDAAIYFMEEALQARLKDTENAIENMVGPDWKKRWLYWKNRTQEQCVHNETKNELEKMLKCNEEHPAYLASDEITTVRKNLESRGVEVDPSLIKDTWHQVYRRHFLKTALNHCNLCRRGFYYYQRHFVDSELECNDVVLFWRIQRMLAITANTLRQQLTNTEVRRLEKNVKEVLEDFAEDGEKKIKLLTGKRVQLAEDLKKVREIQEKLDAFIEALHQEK
UniProt Q96RD7, whole entry, looked up: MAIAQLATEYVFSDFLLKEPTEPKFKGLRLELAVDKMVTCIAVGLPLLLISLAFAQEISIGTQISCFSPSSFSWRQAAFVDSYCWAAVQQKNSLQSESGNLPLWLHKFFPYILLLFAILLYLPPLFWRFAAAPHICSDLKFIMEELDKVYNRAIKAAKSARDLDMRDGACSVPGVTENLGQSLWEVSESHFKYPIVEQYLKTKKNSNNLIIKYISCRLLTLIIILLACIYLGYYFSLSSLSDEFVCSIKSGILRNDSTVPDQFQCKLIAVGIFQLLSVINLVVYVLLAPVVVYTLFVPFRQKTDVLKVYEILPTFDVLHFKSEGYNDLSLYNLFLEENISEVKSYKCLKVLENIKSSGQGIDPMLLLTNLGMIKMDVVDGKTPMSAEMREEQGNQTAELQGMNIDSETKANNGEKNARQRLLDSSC
UniProt Q9NP74: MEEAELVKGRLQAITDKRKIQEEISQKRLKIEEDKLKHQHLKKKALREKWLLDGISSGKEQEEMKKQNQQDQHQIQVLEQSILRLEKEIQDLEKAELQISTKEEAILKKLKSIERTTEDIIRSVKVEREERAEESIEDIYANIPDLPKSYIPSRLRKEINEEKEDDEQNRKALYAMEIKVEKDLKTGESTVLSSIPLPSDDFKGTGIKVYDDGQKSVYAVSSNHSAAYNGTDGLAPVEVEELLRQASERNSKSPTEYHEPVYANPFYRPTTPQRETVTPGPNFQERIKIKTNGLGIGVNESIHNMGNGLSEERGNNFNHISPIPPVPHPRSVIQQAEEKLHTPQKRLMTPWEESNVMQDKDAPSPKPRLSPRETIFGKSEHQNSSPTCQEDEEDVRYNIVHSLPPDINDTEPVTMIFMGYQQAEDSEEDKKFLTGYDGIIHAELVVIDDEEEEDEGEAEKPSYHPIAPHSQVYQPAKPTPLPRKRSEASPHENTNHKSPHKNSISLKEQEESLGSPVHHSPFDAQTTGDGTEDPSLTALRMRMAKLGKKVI
UniProt Q6N063: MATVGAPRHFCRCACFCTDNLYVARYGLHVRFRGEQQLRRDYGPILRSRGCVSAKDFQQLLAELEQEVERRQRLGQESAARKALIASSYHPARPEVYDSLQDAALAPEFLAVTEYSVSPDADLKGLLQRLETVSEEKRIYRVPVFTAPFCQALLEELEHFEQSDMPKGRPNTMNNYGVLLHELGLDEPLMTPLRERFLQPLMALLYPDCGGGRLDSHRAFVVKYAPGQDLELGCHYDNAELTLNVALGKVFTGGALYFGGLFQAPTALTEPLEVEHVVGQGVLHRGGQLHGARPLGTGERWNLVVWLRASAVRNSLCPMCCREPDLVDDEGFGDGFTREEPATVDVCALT
UniProt Q9BXB4: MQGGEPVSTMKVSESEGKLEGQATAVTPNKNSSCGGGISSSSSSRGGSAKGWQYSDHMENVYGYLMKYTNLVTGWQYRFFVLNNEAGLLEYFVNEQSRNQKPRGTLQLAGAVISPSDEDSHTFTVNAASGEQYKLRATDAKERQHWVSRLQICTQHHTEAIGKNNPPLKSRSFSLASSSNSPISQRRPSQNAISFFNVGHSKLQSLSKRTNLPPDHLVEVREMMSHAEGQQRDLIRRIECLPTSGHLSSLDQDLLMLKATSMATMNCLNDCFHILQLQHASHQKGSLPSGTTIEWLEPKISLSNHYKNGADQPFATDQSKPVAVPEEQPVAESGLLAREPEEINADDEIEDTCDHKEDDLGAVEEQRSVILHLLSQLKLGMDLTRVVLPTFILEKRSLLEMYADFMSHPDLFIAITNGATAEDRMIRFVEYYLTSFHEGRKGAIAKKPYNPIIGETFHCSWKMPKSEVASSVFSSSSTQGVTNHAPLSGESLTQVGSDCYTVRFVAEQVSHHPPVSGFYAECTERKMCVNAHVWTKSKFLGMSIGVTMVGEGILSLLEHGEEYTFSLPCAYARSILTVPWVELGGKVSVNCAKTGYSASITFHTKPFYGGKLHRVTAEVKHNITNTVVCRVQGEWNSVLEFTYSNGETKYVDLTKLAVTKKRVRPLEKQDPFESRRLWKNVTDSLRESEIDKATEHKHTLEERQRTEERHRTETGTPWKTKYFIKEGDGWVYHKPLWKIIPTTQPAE

Key:
Test in all cases: log2 fold change, soluble protein after heating vs DMSO (PISA); higher = thermal stabilisation; K562 lysate, 10 uM; active = over 0.2 and 3.5 SD of the protein, either way, in both replicates (recomputed)
vemurafenib = compound: CCCS(=O)(=O)Nc1ccc(F)c(C(=O)c2c[nH]c3ncc(-c4ccc(Cl)cc4)cc23)c1F [vemurafenib]
Summary of the method: (§1)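 K562 pellets were dounce-homogenised in PBS pH 7.4 with 1 mM MgCl2, and the crude extract at 1 mg/mL protein was treated with 10 μM compound for 30 min. Aliquots were heated for 3 min across 48°C-58°C, pooled, and brought to 0.5% NP-40 at 4°C; soluble protein was the supernatant after 21,000xg for 90 min. Soluble protein was quantified by TMTpro 16plex LC-MS/MS with channel sums equalised, and reported as log2 fold change in thermal stability against DMSO controls, with values from duplicates.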

[1] = compound: CCCS(=O)(=O)Nc1ccc(F)c(C(=O)c2c[nH]c3ncc(Cl)cc23)c1F
Summary of the method: as §1

barasertib = compound: CCN(CCCOc1ccc2c(Nc3cc(CC(=O)Nc4cccc(F)c4)[nH]n3)ncnc2c1)CCOP(=O)(O)O [barasertib]
Summary of the method: as §1

[2] = compound: CC[C@@H]1C(=O)N(C)c2cnc(Nc3ccc(C(=O)NC4CCN(C)CC4)cc3OC)nc2N1C1CCCC1
Summary of the method: as §1

volasertib = compound: CC[C@@H]1C(=O)N(C)c2cnc(Nc3ccc(C(=O)N[C@H]4CC[C@H](N5CCN(CC6CC6)CC5)CC4)cc3OC)nc2N1C(C)C [volasertib]
Summary of the method: as §1

[3] = compound: CCn1c(C(=O)N(C2CC2)C2CC2)cc2c3c(ncn3C)c(Nc3cc(C)n(C)n3)nc21
Summary of the method: as §1

[4] = compound: CCn1cc(-c2ccnc3[nH]c(-c4cccc(CN(C)C)c4)cc23)c(-c2ccc(NC(=O)N(C)C)cc2)n1
Summary of the method: as §1

[5] = compound: CN1CCC(CNc2ccc3ncc(-c4cccc(OC(F)(F)F)c4)n3n2)CC1
Summary of the method: as §1

saracatinib = compound: CN1CCN(CCOc2cc(OC3CCOCC3)c3c(Nc4c(Cl)ccc5c4OCO5)ncnc3c2)CC1 [saracatinib]
Summary of the method: as §1

sotrastaurin = compound: CN1CCN(c2nc(C3=C(c4c[nH]c5ccccc45)C(=O)NC3=O)c3ccccc3n2)CC1 [sotrastaurin]
Summary of the method: as §1

alvocidib = compound: CN1CC[C@H](c2c(O)cc(O)c3c(=O)cc(-c4ccccc4Cl)oc23)[C@H](O)C1 [alvocidib]
Summary of the method: as §1

Tubastatin A = compound: CN1CCc2c(c3ccccc3n2Cc2ccc(C(=O)NO)cc2)C1 [Tubastatin A]
Summary of the method: as §1

[6] = compound: CNC(=O)C1=CC=CC=C1NC2=NC(=NC=C2Cl)NC3=C(C=C(C=C3)N4CCOCC4)OC
Summary of the method: as §1

defactinib = compound: CNC(=O)c1ccc(Nc2ncc(C(F)(F)F)c(NCc3nccnc3N(C)S(C)(=O)=O)n2)cc1 [defactinib]
Summary of the method: as §1

[7] = compound: CNc1nc(-c2ccc3c(N)n[nH]c3c2)cc(N2C[C@@H](C(=O)NC3CCCCC3)CC[C@H]2C)n1
Summary of the method: as §1

encorafenib = compound: COC(=O)N[C@@H](C)CNc1nccc(-c2cn(C(C)C)nc2-c2cc(Cl)cc(NS(C)(=O)=O)c2F)n1 [encorafenib]
Summary of the method: as §1

[8] = compound: COC(=O)[C@H](CCSC)NC(=O)C1=C(C=C(C=C1)NC[C@H](CS)N)C2=CC=CC=C2
Summary of the method: as §1

alisertib = compound: COc1cc(Nc2ncc3c(n2)-c2ccc(Cl)cc2C(c2c(F)cccc2OC)=NC3)ccc1C(=O)O [alisertib]
Summary of the method: as §1

[9] = compound: COc1cc2nc(-c3cc(F)ccc3O)nc(N[C@@H]3CNC[C@H]3C(C)(C)O)c2cc1OC
Summary of the method: as §1

gefitinib = compound: COc1cc2ncnc(Nc3ccc(F)c(Cl)c3)c2cc1OCCCN1CCOCC1 [gefitinib]
Summary of the method: as §1

Measured: log2 fold change

NUP50 (UniProt Q9UKX7)
inactive: vemurafenib 0.057 | [1] -0.003 | barasertib -0.014 | [2] 0.067 | volasertib 0.003 | [3] -0.012 | [4] -0.183 | [5] 0.072 | saracatinib 0.023 | sotrastaurin -0.003 | alvocidib -0.043 | Tubastatin A 0.03 | [6] 0.007 | defactinib 0.003 | [7] 0.045 | encorafenib 0.023 | [8] -0.049 | alisertib -0.017 | [9] 0.015 | gefitinib -0.019

OSGEP (UniProt Q9NPF4)
inactive: vemurafenib 0.003 | [1] 0.026 | barasertib 0.031 | [2] -0.059 | volasertib -0.037 | [3] -0.03 | [4] -0.065 | [5] 0.026 | saracatinib -0.006 | sotrastaurin -0.008 | alvocidib -0.062 | Tubastatin A 0 | [6] -0.047 | defactinib 0 | [7] 0.03 | encorafenib -0.008 | [8] 0.016 | alisertib 0.045 | [9] 0.007 | gefitinib -0.032

OPA1 isoform 2 (UniProt O60313)
inactive: vemurafenib 0.022 | [1] 0.029 | barasertib 0.024 | [2] -0.057 | volasertib -0.033 | [3] 0.037 | [4] -0.016 | [5] -0.192 | saracatinib 0.007 | sotrastaurin 0.014 | alvocidib 0.012 | Tubastatin A 0.038 | [6] -0.032 | defactinib -0.013 | [7] -0.042 | encorafenib -0.017 | [8] 0.053 | alisertib 0.03 | [9] -0.041 | gefitinib -0.003

PANX1 (UniProt Q96RD7)
inactive: vemurafenib 0.018 | [1] -0.022 | barasertib -0.022 | [2] -0.003 | volasertib 0.017 | [3] 0.022 | [4] -0.036 | [5] -0.006 | saracatinib -0.009 | sotrastaurin 0.068 | alvocidib 0.036 | Tubastatin A -0.028 | [6] 0.011 | defactinib 0.023 | [7] 0.016 | encorafenib -0.009 | [8] -0.072 | alisertib 0.026 | [9] 0.022 | gefitinib 0.081

PALMD (UniProt Q9NP74)
inactive: vemurafenib 0.038 | [1] -0.014 | barasertib -0.062 | [2] 0.199 | volasertib 0.029 | [3] 0.153 | [4] 0.07 | [5] 0.02 | saracatinib -0.055 | sotrastaurin -0.011 | alvocidib -0.057 | Tubastatin A 0.016 | [6] 0.137 | defactinib 0.044 | [7] -0.017 | encorafenib 0.039 | [8] 0.116 | alisertib -0.022 | [9] -0.031 | gefitinib 0.118

OGFOD2 (UniProt Q6N063)
active: [8] 0.223
inactive: vemurafenib 0.024 | [1] 0.173 | barasertib 0.005 | [2] -0.147 | volasertib -0.062 | [3] -0.023 | [4] -0.042 | [5] 0.071 | saracatinib -0.047 | sotrastaurin 0.039 | alvocidib 0.029 | Tubastatin A 0.033 | [6] 0.059 | defactinib 0.015 | [7] -0.125 | encorafenib -0.054 | alisertib 0.009 | [9] -0.014 | gefitinib -0.065

OSBPL11 (UniProt Q9BXB4)
inactive: vemurafenib -0.053 | [1] 0.025 | barasertib 0.027 | [2] -0.022 | volasertib -0.046 | [3] -0.043 | [4] 0.154 | [5] 0.073 | saracatinib 0.063 | sotrastaurin 0.01 | alvocidib -0.043 | Tubastatin A 0.24 | [6] -0.071 | defactinib 0.022 | [7] 0.046 | encorafenib -0.01 | [8] 0.048 | alisertib -0.012 | [9] 0.082 | gefitinib -0.019
